No constants are given. Whether binding was seen depends on the method and setting. Binding seen in cells or lysates may run through a third protein. A yes stands for co-enrichment or nearness to the bait. Other partners may have been found. Values belong to the molecule of their own block, whether it stands above or below them.
What was measured:
[1] = biological target: T1, Phf14 (PHD finger protein 14), mouse, endogenous (mouse (endogenous in ESCs and NPCs)) (UniProt Q9D4H9); assay: affinity purification with mass spectrometry
T1 sequence: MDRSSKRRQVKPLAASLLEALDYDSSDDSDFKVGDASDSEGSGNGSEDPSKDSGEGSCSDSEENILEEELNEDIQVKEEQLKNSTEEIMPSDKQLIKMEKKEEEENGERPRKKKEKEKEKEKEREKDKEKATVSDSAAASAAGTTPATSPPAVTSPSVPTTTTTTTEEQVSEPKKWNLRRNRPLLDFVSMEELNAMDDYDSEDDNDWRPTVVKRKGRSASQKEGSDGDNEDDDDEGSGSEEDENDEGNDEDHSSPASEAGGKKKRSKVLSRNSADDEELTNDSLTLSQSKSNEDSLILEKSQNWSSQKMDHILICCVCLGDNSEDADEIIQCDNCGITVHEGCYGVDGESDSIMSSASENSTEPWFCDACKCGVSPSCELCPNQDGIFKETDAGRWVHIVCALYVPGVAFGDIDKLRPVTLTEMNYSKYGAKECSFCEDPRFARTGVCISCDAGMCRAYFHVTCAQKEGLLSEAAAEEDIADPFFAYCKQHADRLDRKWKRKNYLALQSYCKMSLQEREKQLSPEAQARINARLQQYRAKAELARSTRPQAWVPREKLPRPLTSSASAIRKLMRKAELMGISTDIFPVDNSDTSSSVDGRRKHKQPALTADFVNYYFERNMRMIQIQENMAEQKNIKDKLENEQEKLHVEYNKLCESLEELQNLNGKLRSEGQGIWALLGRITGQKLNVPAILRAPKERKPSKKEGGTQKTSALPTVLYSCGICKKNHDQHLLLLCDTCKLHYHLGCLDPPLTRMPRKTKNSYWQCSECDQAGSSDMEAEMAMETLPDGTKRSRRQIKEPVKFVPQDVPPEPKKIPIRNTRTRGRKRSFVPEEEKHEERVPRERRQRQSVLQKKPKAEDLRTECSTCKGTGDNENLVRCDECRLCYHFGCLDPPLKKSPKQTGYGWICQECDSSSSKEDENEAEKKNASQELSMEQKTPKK

By UniProt entry, the sequences of proteins in these tests, tags left out.
UniProt Q61818: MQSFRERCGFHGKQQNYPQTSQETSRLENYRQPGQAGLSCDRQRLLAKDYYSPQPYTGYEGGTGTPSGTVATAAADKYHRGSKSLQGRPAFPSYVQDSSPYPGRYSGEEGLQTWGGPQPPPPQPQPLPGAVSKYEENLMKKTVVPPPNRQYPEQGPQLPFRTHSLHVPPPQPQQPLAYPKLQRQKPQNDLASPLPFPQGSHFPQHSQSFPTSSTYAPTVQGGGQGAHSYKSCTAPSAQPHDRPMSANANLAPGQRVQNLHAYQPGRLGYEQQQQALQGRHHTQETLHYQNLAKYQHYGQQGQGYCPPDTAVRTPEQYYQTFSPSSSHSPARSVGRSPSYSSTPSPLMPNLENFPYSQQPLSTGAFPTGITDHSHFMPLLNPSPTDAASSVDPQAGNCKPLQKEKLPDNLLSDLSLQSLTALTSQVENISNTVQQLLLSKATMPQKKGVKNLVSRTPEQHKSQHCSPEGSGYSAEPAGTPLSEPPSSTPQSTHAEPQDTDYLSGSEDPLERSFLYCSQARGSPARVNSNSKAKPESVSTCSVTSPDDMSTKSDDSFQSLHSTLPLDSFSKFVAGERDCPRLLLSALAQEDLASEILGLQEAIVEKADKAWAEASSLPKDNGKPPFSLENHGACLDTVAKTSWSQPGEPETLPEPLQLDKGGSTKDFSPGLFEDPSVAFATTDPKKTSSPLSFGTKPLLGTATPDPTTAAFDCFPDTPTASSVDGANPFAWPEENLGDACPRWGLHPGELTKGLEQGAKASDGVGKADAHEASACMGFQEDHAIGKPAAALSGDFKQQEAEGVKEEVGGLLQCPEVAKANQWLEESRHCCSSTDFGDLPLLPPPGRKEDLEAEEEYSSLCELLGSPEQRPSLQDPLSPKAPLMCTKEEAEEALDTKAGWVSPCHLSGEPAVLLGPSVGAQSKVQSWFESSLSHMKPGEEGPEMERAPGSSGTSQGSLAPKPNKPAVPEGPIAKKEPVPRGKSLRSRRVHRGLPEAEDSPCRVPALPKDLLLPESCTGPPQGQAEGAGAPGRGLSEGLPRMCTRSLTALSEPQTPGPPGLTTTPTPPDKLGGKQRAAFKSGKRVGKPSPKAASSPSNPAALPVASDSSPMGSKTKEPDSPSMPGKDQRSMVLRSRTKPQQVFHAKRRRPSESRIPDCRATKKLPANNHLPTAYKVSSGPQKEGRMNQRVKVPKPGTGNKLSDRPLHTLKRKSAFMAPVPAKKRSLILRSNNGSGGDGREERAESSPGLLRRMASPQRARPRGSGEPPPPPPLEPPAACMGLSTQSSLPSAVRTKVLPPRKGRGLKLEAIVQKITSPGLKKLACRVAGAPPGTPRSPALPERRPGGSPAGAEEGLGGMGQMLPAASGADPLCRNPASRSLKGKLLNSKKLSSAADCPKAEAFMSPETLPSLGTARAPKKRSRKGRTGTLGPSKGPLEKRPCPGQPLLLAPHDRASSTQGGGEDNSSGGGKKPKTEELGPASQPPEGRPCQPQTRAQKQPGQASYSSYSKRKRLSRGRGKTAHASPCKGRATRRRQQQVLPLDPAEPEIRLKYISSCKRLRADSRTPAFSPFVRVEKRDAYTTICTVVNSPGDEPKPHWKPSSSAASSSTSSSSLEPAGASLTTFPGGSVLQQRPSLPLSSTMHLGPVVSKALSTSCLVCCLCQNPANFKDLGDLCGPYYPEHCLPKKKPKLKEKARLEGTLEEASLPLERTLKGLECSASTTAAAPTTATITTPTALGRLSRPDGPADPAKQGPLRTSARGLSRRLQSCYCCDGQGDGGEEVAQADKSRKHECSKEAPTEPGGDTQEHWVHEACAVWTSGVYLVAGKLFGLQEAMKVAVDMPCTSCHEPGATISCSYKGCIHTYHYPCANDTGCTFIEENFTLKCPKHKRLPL

[2] = biological target: Rai1-HA-3x-FLAG (endogenous Rai1 tagged at the C-terminus) (mouse (endogenous in ESC-derived cells)) (UniProt Q61818); assay: affinity purification with mass spectrometry

binding [1]: binds
Molecule: Rai1 (retinoic acid induced 1), mouse, endogenous (from UniProt Q61818 1-1889)

binding [2]: binds
B1: Phf14 (PHD finger protein 14), mouse, endogenous (protein, UniProt Q9D4H9 1-941)
chain: T1 sequence

Source: article doi:10.1101/2021.10.12.462922 (bioRxiv, 2021)
